{"sequences": {"note": "By UniProt entry, the sequences of proteins in these tests, tags left out. Where a name states a change or a piece, a line headed by the entry shows the natural chain unless it says otherwise. Residues count along the entry.", "UniProt P40763": "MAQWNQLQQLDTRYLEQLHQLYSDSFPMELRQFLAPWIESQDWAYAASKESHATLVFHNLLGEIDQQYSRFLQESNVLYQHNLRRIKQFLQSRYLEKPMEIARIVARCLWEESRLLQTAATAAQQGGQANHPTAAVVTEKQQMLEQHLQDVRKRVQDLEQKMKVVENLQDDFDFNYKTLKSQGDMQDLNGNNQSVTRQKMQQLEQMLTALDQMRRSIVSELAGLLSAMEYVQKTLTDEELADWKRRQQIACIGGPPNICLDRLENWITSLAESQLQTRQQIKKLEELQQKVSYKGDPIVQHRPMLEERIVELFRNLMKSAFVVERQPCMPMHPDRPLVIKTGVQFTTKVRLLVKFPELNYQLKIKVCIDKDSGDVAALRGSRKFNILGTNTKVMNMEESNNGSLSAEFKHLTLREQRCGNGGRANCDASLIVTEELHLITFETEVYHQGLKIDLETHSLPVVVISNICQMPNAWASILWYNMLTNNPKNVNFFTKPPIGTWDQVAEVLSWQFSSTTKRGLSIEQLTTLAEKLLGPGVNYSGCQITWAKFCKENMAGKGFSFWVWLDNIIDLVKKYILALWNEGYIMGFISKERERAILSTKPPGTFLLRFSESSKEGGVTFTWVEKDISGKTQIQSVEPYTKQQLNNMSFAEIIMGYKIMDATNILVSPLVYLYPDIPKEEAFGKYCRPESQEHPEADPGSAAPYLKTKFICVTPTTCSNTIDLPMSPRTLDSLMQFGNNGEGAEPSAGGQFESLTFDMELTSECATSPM", "STAT3 fragment with the SH2 domain": "residues 580-670 of P40763", "UniProt Q14680": "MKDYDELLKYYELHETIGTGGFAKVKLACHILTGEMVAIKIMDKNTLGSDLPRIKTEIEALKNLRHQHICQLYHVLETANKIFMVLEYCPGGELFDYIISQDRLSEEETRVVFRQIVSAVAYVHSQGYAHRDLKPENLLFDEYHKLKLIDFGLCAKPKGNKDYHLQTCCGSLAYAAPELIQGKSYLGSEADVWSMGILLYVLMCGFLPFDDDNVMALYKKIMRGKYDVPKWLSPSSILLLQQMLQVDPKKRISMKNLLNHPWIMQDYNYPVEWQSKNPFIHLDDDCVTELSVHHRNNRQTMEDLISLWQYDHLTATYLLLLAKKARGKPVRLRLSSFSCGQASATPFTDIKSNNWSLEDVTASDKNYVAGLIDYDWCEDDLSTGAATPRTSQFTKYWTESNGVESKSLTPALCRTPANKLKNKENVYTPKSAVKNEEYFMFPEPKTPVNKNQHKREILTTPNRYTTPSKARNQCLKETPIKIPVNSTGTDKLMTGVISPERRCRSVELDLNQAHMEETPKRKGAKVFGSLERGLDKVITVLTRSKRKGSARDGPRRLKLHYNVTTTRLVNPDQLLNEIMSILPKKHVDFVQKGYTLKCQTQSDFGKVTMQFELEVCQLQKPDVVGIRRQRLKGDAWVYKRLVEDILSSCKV"}, "source": "paper PMC11225310", "key": {"[1]": {"biological_target": "STAT3 fragment with the SH2 domain (UniProt P40763)", "assay": "co-IP; truncated mutants of MELK and of STAT3 tested against the other protein; the method is not named for this experiment (CoIP is the only such method in the paper's methods); cells not named"}, "[2]": {"biological_target": "Maternal embryonic leucine zipper kinase (MELK) (human (in SK-HEP1 and HCC-LM3 cells)) (UniProt Q14680)", "assay": "co-IP; lysates of SK-HEP1 and HCC-LM3 cells in IP buffer; antibody (MELK, STAT3 or normal rabbit IgG) on Protein A/G magnetic beads, 4 °C overnight; washed with PBST; immunoblot"}}, "note": "These are yes or no findings as the source states them, for the method shown. In cells and extracts the contact can be indirect. Some entries that bind do so weakly or less than the wild type.", "data": [{"substance": "MELK (partner in the mapping of STAT3 fragments) (from UniProt Q14680 1-651)", "values": [{"measurement": "binding", "setting": "[1]", "result": "binds"}]}, {"substance": "STAT3 (from UniProt P40763 1-770)", "values": [{"measurement": "binding", "setting": "[2]", "result": "binds"}]}]}
